# Assay results: paper PMC11356571, “The Comparative Metabolism of a Novel Hepatocellular Carcinoma Therapeutic Agent, 2,3-Diamino-N-(4-(benzo[d]thiazol-2-yl)phenyl)propanamide, in Human and Animal Hepatocytes” (Metabolites, 2024)
# Experiments:
# Type in all cases: in vitro ADME
# [1] = tested on: human hepatocytes; assay: Metabolite characterization in human hepatocytes; details: human hepatocyte 1 h incubates of ETN101; ND:<1.2E+05 peak area
# Method: (§1) We mixed 60 μL aliquots of 40 μM ETN101 in incubation medium and an equal volume of human, mouse, rat, dog, or monkey hepatocyte suspension in 96-well plates and incubated for 0 or 1 h in a CO2 incubator at 37 °C. The reactions were quenched by adding 120 µL of ice-cold acetonitrile to each well, and the cell suspension was sonicated for 5 min at 4 °C. Subsequently, centrifugation was carried out at 15,000× g for 10 min at 4 °C. Next, the supernatants were evaporated to dryness using a vacuum concentrator, and residues were re-dissolved in 70 μL of 30% acetonitrile. Each sample (5 μL aliquots) was analyzed using LC–HRMS system.
# (§2) For metabolite characterization, a Vanquish HPLC system (Thermo Fisher Scientific, San José, CA, USA) coupled with a Q-Exactive Orbitrap mass spectrometer (Thermo Fisher Scientific Inc., Waltham, MA, USA) was used at Core Research Support Center for Natural Products and Medical Materials at Yeungnam University. […] The eluent from the column was directly injected into the mass spectrometer using a heated electrospray ionization (HESI) source in positive ionization mode. […] The spray voltage was 3.0 kV and the capillary temperature was 320 °C. […] The parallel reaction monitoring (PRM) mode was used to obtain the MS^2 spectra of putative metabolites detected at low peak intensities in the data-dependent MS^2 acquisition mode. […]
# [2] = tested on: mouse hepatocytes; assay: Metabolite characterization in mouse hepatocytes; details: mouse hepatocyte 1 h incubates of ETN101; ND:<1.2E+05 peak area
# Method: as §1, §2
# [3] = tested on: dog hepatocytes; assay: Metabolite characterization in dog hepatocytes; details: dog hepatocyte 1 h incubates of ETN101; ND:<1.2E+05 peak area
# Method: as §1, §2
# [4] = tested on: rat hepatocytes; assay: Metabolite characterization in rat hepatocytes; details: rat hepatocyte 1 h incubates of ETN101; ND:<1.2E+05 peak area
# Method: as §1, §2
# [5] = tested on: monkey hepatocytes; assay: Metabolite characterization in monkey hepatocytes; details: monkey hepatocyte 1 h incubates of ETN101; ND:<1.2E+05 peak area
# Method: as §1, §2
smiles,measurement,setting,value
"Nc1ccc(-c2nc3ccc(O)cc3s2)cc1 [M3, 6-OH-CJM-126]",Relative peak area (%),[1],0.1%
same,Relative peak area (%),[2],0.2%
same,Relative peak area (%),[3],0.1%
same,Relative peak area (%),[4],< 0.1%
same,Relative peak area (%),[5],0.1%
